Reference: the supplement of paper PMC7877785
± gives the uncertainty stated by the source. Many of these values have a large error.

Test: self-splicing fitness, log relative to wild type (ln ratio); higher = more splicing; Tetrahymena group I intron in knt gene, E. coli kanamycin selection, DiMSum; sequences stand for … in CUCUCU…GGAGGGAAAAGUUAUCAGGCAUGCACCUGGUAGCUAGUCUUUAAACCAAUAGAUUGCAUCGGUUUAAAAGGCAAGACCGUCAAAUUGCGGGAAAGGGGUCAACAGCCGUUCAGUACCAAGUCUCAGGGGAAACUUUGAGAUGGCCUUGCAAAGGGUAUGGUAAUAAGCUGACGGACAUGGUCCUAACCACGCAGCCAAGUCCUAAGUCAACAGAUCUUCUGUUGAUAUGGAUGCAGUUCACAGACUAAAUGUCGGUCGGGGAAGAUGUAUUCUUCUCAUAAGAUAUAGUCGGACCUCUCCUUAAUGGGAGCUAGCGGAUGAAGUGAUGCAACACUGGAGCCGCUGGGAACUAAUUUGUAUGCGAAAGUAUAUUGAUUAGUUUUGGAGUACUCGUGGUCG
In short: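 The eight P1ex-region nucleotides of an intron in the knt kanamycin-resistance gene on pET-22b(+) were all randomised and the library put into E. coli BL21(DE3). Six replicate transformations were grown overnight at 37°C or 30°C on LB agar with or without 25 μg/mL kanamycin, together with 100 μg/mL carbenicillin, 50 μM IPTG and 0.2% rhamnose. Colonies were pooled and amplicon-sequenced on an Illumina HiSeq 2500. Fitness from DiMSum is the error-weighted combination of wild-type-normalised replicate fold changes, kanamycin over none.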

Sequence	self-splicing fitness (ln) (30 °C)	self-splicing fitness (ln) (37 °C)
CUUCAGCAAUAUUACGCUCA	-2.65 ± 0.77	
UUGUAGCAAUAUUACGAUAA	-1.44 ± 0.11	-0.33 ± 0.17
CGGGAGCAAUAUUACGGAAA		-3.04 ± 0.52
AACCAGCAAUAUUACGAUUC	-1.63 ± 0.071	-0.153 ± 0.084
GUUCAGCAAUAUUACGUCCG		-0.538 ± 0.68
UACGAGCAAUAUUACGCAGA	-2.81 ± 0.76	
UCAAAGCAAUAUUACGACGU	-0.985 ± 0.063	0.289 ± 0.069
UUGGAGCAAUAUUACGUGUA		-3.65 ± 0.52
GGGGAGCAAUAUUACGGGAC	-1.1 ± 0.67	-1.18 ± 0.92
CUAUAGCAAUAUUACGAGCC	-3.87 ± 0.52	-2.82 ± 0.61
UUAGAGCAAUAUUACGUGCC	-4.4 ± 0.72	
UUUGAGCAAUAUUACGGAUG		-3.41 ± 0.6
GCAGAGCAAUAUUACGCGCC	-3.39 ± 1	-1.18 ± 0.92
CUGCAGCAAUAUUACGAAAC	-4.49 ± 1	
CACCAGCAAUAUUACGACAU	-3.726 ± 0.018	-2.66 ± 0.035
GUAGAGCAAUAUUACGAGAC		-2.66 ± 0.65
UCCGAGCAAUAUUACGAUGC		-3.33 ± 0.73
UCCUAGCAAUAUUACGCCCG	-3.38 ± 0.59	
CGUGAGCAAUAUUACGCUCA		-2.37 ± 0.55
UUAGAGCAAUAUUACGACCG		-0.812 ± 0.54
CGUGAGCAAUAUUACGGAUA	-3.1 ± 0.3	-2.71 ± 0.34

Sequence	self-splicing fitness (ln) (30 °C)	self-splicing fitness (ln) (37 °C)
GAAGAGCAAUAUUACGAAAA	-3.19 ± 1.2	-2.25 ± 0.79
CCCAAGCAAUAUUACGCCGA		-3.7 ± 0.59
GCGUAGCAAUAUUACGCCAA	-1.44 ± 0.57	
GCUGAGCAAUAUUACGAAAU	-3.27 ± 0.2	-2.43 ± 0.22
CUGUAGCAAUAUUACGCAGA	-4.1 ± 0.59	-4.37 ± 0.52
GAGUAGCAAUAUUACGCCCC	0.741 ± 1.1	
AUGUAGCAAUAUUACGUGUC	-3.79 ± 0.31	-2.81 ± 0.26
GGGCAGCAAUAUUACGGCCG	-1.5 ± 0.16	-1.59 ± 0.26
AUGAAGCAAUAUUACGAGUC	-4.33 ± 0.51	
UAGGAGCAAUAUUACGUCGC		-2.48 ± 1.1
CAAGAGCAAUAUUACGCUGA	-2.97 ± 0.19	-2.08 ± 0.21
AACUAGCAAUAUUACGGUAU	-1.31 ± 0.072	-0.479 ± 0.092
AGUAAGCAAUAUUACGGUUG	-3.09 ± 0.23	-2.51 ± 0.25
CUCAAGCAAUAUUACGACCC		-2.72 ± 1
UGGGAGCAAUAUUACGGUGG		-2.79 ± 1.1
GAAGAGCAAUAUUACGCAGC		-1.04 ± 0.51
GCGUAGCAAUAUUACGCACG		0.864 ± 1.2
AGUCAGCAAUAUUACGAAGA	-1.49 ± 0.67	0.399 ± 0.52
GCAGAGCAAUAUUACGUUGC	-2.79 ± 0.53	
CCCCAGCAAUAUUACGACCG	-4.12 ± 0.26	-1.76 ± 0.34
